Data taken from PMC10928986, “ARTC1-mediated VAPB ADP-ribosylation regulates calcium homeostasis” (Journal of Molecular Cell Biology, 2023).
No constants are given. Whether binding was seen depends on the method and setting. In cells and extracts the contact can be indirect. Some results given as binding are weak or reduced against the parent protein; the word gives no strength. For some of these results: Tags and fused reporters may be left off the sequences shown.

By UniProt entry, the sequences of proteins in these tests, tags left out.
UniProt O95292: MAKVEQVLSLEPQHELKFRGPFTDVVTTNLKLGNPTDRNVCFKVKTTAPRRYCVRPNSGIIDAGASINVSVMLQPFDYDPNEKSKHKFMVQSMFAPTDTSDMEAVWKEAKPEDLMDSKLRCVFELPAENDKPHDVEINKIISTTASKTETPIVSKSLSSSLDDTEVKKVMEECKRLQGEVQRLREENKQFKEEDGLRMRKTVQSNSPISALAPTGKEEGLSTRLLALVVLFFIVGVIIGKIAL

Key:
[1] = target: SFB-tagged human full-length VAPB (wild type) (human) (UniProt O95292); test: co-IP; exogenous co-IP from lysates of AC16 cells transfected with the indicated plasmids; lysis in NETN 300, anti-HA with Protein G-Sepharose or streptavidin agarose, washes in NETN 100
[2] = target: endogenous VAPB (human (endogenous in AC16 and HEK-293T)) (UniProt O95292); test: co-IP; endogenous co-IP of VAPB and SCRN1 from lysates of control or ARTC1-knockdown AC16 cells
[3] = target: T1, endogenous hARTC1 (human (endogenous in AC16 and 293T)) (UniProt P52961); test: co-IP; endogenous co-IP of hARTC1 and hARTC3 in AC16 cells and 293T cells
T1 sequence: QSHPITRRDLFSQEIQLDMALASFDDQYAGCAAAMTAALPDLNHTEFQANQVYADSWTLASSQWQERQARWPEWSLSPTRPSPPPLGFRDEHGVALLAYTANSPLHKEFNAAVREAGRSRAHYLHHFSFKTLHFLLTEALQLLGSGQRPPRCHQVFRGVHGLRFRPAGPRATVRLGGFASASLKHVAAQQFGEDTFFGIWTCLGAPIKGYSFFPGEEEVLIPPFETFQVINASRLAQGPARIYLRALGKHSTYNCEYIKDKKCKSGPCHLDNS

B1: HA-tagged human full-length SCRN1 (protein, UniProt Q12765 1-414)
chain: MAAAPPSYCFVAFPPRAKDGLVVFGKNSARPRDEVQEVVYFSAADHEPESKVECTYISIDQVPRTYAIMISRPAWLWGAEMGANEHGVCIANEAINTREPAAEIEALLGMDLVRLGLERGETAKEALDVIVSLLEEHGQGGNYFEDANSCHSFQSAYLIVDRDEAWVLETIGKYWAAEKVTEGVRCICSQLSLTTKMDAEHPELRSYAQSQGWWTGEGEFNFSEVFSPVEDHLDCGAGKDSLEKQEESITVQTMMNTLRDKASGVCIDSEFFLTTASGVSVLPQNRSSPCIHYFTGTPDPSRSIFKPFIFVDDVKLVPKTQSPCFGDDDPAKKEPRFQEKPDRRHELYKAHEWARAIIESDQEQGRKLRSTMLELEKQGLEAMEEILTSSEPLDPAEVGDLFYDCVDTEIKFFK
B1 was tested, and the binding [1] was “binds”.

B2: endogenous SCRN1 (protein, UniProt Q12765 1-414)
chain: B1 chain
With B2 the binding [2] was “binds”.

B3: endogenous hARTC3 (protein, UniProt Q13508 27-362)
chain: EVLDMADNAFDDEYLKCTDRMEIKYVPQLLKEEKASHQQLDTVWENAKAKWAARKTQIFLPMNFKDNHGIALMAYISEAQEQTPFYHLFSEAVKMAGQSREDYIYGFQFKAFHFYLTRALQLLRKPCEASSKTVVYRTSQGTSFTFGGLNQARFGHFTLAYSAKPQAANDQLTVLSIYTCLGVDIENFLDKESERITLIPLNEVFQVSQEGAGNNLILQSINKTCSHYECAFLGGLKTENCIENLEYFQPIYVYNPGEKNQKLEDHSEKNWKLEDHGEKNQKLEDHGVKILEPTQIPGMKIPEPFPLPEDKSQGNINNPTPGPVPVPGPKSHPSAS
B3 was tested, and the binding [3] was “binds”.

B4: hARTC1, exogenously expressed in AC16 cells (enzyme, UniProt P52961 23-295)
chain: T1 sequence
In the case of B4, the binding [1] is reported as “binds”.
